Data as given in PubChem BioAssay AID504784 (Drosophila RNAi Screening Center, 2011).
The screen tested about 17,000 reagents; shown is a random part of those with a known target gene and a result. 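Each column is one replicate's B-score; the combined score over replicates was not deposited, so single values may mislead.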 Reagents against one gene are numbered here.

Aim: 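Genome-wide knock-down for genes giving too much or too little stored lipid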 (primary screen)
Cells: Drosophila Kc167 embryonic cells
Knock-down reagent: long dsRNA against Drosophila genes, about 250 ng dsRNA per well
Duration: 4 days
Challenge: cells fed 400 µM oleic acid bound to BSA
Measured: 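Cells imaged and segmented; ratio of lipid droplet area to nuclear area, log-transformed, then normalised as a B-score over the screen; higher means more stored lipid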
Reading the numbers: droplet/nuclear area B-score: higher = more stored lipid (overstorage)

hob — droplet/nuclear area B-score, replicate 1 = 0.837; droplet/nuclear area B-score, replicate 2 = 0.723
CG12147 — droplet/nuclear area B-score, replicate 1 = 3.47; droplet/nuclear area B-score, replicate 2 = 1.89
Snrk #1 — droplet/nuclear area B-score, replicate 1 = -2; droplet/nuclear area B-score, replicate 2 = 0.254
Snrk #2 — droplet/nuclear area B-score, replicate 1 = 0.596; droplet/nuclear area B-score, replicate 2 = 0.901
CG32187 — droplet/nuclear area B-score, replicate 1 = -0.648; droplet/nuclear area B-score, replicate 2 = -0.604
CG8563 — droplet/nuclear area B-score, replicate 1 = -0.48; droplet/nuclear area B-score, replicate 2 = 1.33
beat-VII #1 — droplet/nuclear area B-score, replicate 1 = 2.76; droplet/nuclear area B-score, replicate 2 = 2.12
beat-VII #2 — droplet/nuclear area B-score, replicate 1 = 0.608; droplet/nuclear area B-score, replicate 2 = 2.11
beat-VII #3 — droplet/nuclear area B-score, replicate 1 = 0.363; droplet/nuclear area B-score, replicate 2 = 0.145
beat-VII #4 — droplet/nuclear area B-score, replicate 1 = -2.22; droplet/nuclear area B-score, replicate 2 = -0.0578
CG8272 — droplet/nuclear area B-score, replicate 1 = 0.298; droplet/nuclear area B-score, replicate 2 = 1.2
CG17896 — droplet/nuclear area B-score, replicate 1 = 0.177; droplet/nuclear area B-score, replicate 2 = -0.685
CG30110 — droplet/nuclear area B-score, replicate 1 = -0.101; droplet/nuclear area B-score, replicate 2 = 1.19
CG5555 — droplet/nuclear area B-score, replicate 1 = -0.00982; droplet/nuclear area B-score, replicate 2 = 0.409
ND-ASHI — droplet/nuclear area B-score, replicate 1 = 1.06; droplet/nuclear area B-score, replicate 2 = -1.65
CG17715 — droplet/nuclear area B-score, replicate 1 = 1.02; droplet/nuclear area B-score, replicate 2 = 0.804
CG12824 — droplet/nuclear area B-score, replicate 1 = 1.39; droplet/nuclear area B-score, replicate 2 = -0.94
CG8468 — droplet/nuclear area B-score, replicate 1 = 1.52; droplet/nuclear area B-score, replicate 2 = 0.0652
Vti1b #1 — droplet/nuclear area B-score, replicate 1 = 0.33; droplet/nuclear area B-score, replicate 2 = -0.553
Vti1b #2 — droplet/nuclear area B-score, replicate 1 = -0.448; droplet/nuclear area B-score, replicate 2 = -0.342
CG6362 — droplet/nuclear area B-score, replicate 1 = 3.4; droplet/nuclear area B-score, replicate 2 = -2.03
CG15269 — droplet/nuclear area B-score, replicate 1 = -0.885; droplet/nuclear area B-score, replicate 2 = -1.64
Megf8 — droplet/nuclear area B-score, replicate 1 = -0.545; droplet/nuclear area B-score, replicate 2 = 0.216
CG9986 — droplet/nuclear area B-score, replicate 1 = 1.17
CG3517 — droplet/nuclear area B-score, replicate 1 = 0.408; droplet/nuclear area B-score, replicate 2 = -0.0927
Eglp3 — droplet/nuclear area B-score, replicate 1 = 1.62; droplet/nuclear area B-score, replicate 2 = -0.269
CheB38b — droplet/nuclear area B-score, replicate 1 = 1.18; droplet/nuclear area B-score, replicate 2 = 0.695

3 of these entries, reformatted:
target | reagent no. | droplet/nuclear area B-score, replicate 1 | droplet/nuclear area B-score, replicate 2
Vti1b | 2 | -0.448 | -0.342
CG6362 | 1 | 3.4 | -2.03
CG15269 | 1 | -0.885 | -1.64
